Test results from article PMC7835958.
No constants are given. Whether binding was seen depends on the method and setting. Some results given as binding are weak or reduced against the parent protein; the word gives no strength.

Protein sequences, listed by entry. Tags and fused reporters are not part of them. Residues count along the entry.
UniProt Q03164, residues 1-160: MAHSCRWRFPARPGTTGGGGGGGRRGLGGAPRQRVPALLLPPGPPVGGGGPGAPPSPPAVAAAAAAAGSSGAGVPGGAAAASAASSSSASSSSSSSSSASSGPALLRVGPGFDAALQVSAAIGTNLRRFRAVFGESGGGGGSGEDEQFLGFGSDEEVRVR
UniProt Q7Z4V5, residues 470-552: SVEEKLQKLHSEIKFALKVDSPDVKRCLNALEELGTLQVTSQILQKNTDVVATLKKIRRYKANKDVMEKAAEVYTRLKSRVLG

Target: MLL_(1–160)–GST (UniProt Q03164)
Assay: AlphaScreen or HTRF; out-competition: Flag-LEDGF/p75 (0.3 nM) preincubated with MLL_(1–160)–GST (10 nM) before titration of MBP-LEDGF/p75_(325–530), MBP-HRP-2_(470–552) or MBP alone; both purified

In the case of “MBP-HRP-2_(470–552) (from UniProt Q7Z4V5 470-552) (domain or fragment)”, the binding is reported as “binds”.
